In PMC9499535, “Distinct architectural requirements for the parS centromeric sequence of the pSM19035 plasmid partition machinery”:
No constants are given. Whether binding was seen depends on the method and setting. Binding can be weak; no strength is given.

Target: ParApSM-GFP-His6 (Streptococcus pyogenes (plasmid pSM19035))
Assay: TIRF microscopy on an nsDNA-carpeted flow cell; preformed ParApSM-GFP/ParBpSM-Alexa647 complexes on the nsDNA-carpet with 7R- or 4R-parSpSM, washed with ATP buffer containing ParApSM-GFP (0.5 μM); ParBpSM-Alexa647 dissociation followed; both purified

B1: ParBpSM-Alexa647 (ParBpSM-GCE, 1% labeled) (protein, UniProt Q57468 1-71)
chain: MIVGNLGAQKAKRNDTPISAKKDIMGDKTVRVRADLHHIIKIETAKNGGNVKEVMDQALEEYIRKYLPDKL
modifications: Alexa647 maleimide on the added cysteine (73C); 1% of the protein labelled
- binding: binds
